Where a chain is given by its changes, count along the chain named.
B1: modified luciferase: Luciola cruciata luciferase with Ser to Tyr change at position 286, amino acid sequence SEQ ID NO:4, encoded by codon optimized gene SEQ ID NO:3 (protein, listed as Luciola cruciata)
chain: MENMENDENIVVGPKPFYPIEEGSAGTQLRKYMERYAKLGAIAFTNAVTGVDYSYAEYLEKSCCLGKALQNYGLVVDGRIALCSENCEEFFIPVIAGLFIGVGVAPTNEIYTLRELVHSLGISKPTIVFSSKKGLDKVITVQKTVTTIKTIVILDSKVDYRGYQCLDTFIKRNTPPGFQASSFKTVEVDRKEQVALIMNSSGSTGLPKGVQLTHENTVTRFSHARDPIYGNQVSPGTAVLTVVPFHHGFGMFTTLGYLICGFRVVMLTKFDEETFLKTLQDYKCTYVILVPTLFAILNKSELLNKYDLSNLVEIASGGAPLSKEVGEAVARRFNLPGVRQGYGLTETTSAIIITPEGDDKPGASGKVVPLFKAKVIDLDTKKSLGPNRRGEVCVKGPMLMKGYVNNPEATKELIDEEGWLHTGDIGYYDEEKHFFIVDRLKSLIKYKGYQVPPAELESVLLQHPSIFDAGVAGVPDPVAGELPGAVVVLESGKNMTEKEVMDYVASQVSNAKRLRGGVRFVDEVPKGLTGKIDGRAIREILKKPVAKM
B2: wild-type protein: Wild-type Japanese firefly Luciola cruciata luciferase protein, SEQ ID NO:2 (protein, listed as Luciola cruciata)
chain: B1 chain with Y286S

Assay: Wavelength of emitted light of the luciferase
Conditions: pH 6

Molecule | emitted light wavelength
B1 | 619 nm
B2 | 560 nm

From patent US8450054B2, “Modified Luciola cruciata luciferase gene and protein” (Marker Gene Technologies, Inc., priority 2008, dated 2013)
